# ± gives the standard deviation of the averaged measurements. This is a selection; strong and weak results do not stand in their true shares.
# Key:
# Test in all cases: NP40-soluble protein abundance relative to vehicle (solubility fold change) (ratio); higher = more soluble protein in presence of ATP
# [1] = molecular target: T1, UniProt Q6PJG2 and related entries
# T1 sequence (whole entry): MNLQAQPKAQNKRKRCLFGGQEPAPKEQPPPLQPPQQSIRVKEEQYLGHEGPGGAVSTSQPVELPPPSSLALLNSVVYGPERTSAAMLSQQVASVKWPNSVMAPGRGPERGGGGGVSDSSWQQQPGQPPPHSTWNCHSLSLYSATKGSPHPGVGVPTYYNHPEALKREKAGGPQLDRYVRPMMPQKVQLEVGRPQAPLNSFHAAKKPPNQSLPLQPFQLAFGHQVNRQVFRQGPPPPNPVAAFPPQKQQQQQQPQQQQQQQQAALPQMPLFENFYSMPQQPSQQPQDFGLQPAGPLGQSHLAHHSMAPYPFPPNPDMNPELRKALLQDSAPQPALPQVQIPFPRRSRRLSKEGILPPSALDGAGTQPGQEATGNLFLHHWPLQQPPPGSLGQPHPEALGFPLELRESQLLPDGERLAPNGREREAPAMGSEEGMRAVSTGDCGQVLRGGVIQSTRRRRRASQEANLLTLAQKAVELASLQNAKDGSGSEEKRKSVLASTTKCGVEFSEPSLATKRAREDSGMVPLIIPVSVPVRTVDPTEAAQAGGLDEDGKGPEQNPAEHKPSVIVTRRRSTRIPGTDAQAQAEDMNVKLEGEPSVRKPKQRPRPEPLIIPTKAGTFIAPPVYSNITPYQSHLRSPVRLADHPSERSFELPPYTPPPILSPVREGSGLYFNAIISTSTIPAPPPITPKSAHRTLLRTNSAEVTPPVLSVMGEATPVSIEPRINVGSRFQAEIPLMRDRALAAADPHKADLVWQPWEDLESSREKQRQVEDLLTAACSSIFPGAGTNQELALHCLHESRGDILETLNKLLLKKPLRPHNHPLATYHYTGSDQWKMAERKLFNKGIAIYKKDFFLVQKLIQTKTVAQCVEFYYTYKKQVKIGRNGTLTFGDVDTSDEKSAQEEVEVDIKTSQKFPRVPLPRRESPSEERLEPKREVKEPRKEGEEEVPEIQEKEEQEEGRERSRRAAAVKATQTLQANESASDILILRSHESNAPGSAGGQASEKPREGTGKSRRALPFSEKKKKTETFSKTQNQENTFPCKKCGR
# Summary of the method: (§1)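 In three independent experiments, Jurkat crude lysate made by Dounce homogenisation was treated for 10 min at room temperature and then 3 min at 37 °C with eight concentrations ranging from 0.1 to 10 mM. It was then solubilised with 0.8% NP40 plus benzonase for 60 min at 4 °C and ultracentrifuged. The supernatant was TMT-labelled for LC-MS/MS, and each value is the fold change against the detergent-processed vehicle for the same replicate, using vsn-normalised intensities.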
# UniProt Q6UW63 = molecular target: T2, UniProt Q6UW63
# T2 sequence (whole entry): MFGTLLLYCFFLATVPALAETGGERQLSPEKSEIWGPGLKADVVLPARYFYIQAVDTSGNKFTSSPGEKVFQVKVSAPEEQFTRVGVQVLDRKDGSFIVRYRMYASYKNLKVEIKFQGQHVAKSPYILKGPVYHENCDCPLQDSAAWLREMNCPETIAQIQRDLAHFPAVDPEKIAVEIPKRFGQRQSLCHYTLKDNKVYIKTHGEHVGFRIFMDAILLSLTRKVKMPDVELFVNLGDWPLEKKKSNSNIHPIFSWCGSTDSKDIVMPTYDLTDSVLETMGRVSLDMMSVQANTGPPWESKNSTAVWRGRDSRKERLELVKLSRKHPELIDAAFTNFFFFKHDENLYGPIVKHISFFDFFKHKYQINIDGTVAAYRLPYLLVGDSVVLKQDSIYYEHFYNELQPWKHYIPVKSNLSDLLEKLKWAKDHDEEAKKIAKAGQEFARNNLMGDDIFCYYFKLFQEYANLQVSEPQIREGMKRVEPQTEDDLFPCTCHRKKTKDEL
# Summary of the method: as §1
# UniProt Q6UX04 = molecular target: T3, UniProt Q6UX04
# T3 sequence (whole entry): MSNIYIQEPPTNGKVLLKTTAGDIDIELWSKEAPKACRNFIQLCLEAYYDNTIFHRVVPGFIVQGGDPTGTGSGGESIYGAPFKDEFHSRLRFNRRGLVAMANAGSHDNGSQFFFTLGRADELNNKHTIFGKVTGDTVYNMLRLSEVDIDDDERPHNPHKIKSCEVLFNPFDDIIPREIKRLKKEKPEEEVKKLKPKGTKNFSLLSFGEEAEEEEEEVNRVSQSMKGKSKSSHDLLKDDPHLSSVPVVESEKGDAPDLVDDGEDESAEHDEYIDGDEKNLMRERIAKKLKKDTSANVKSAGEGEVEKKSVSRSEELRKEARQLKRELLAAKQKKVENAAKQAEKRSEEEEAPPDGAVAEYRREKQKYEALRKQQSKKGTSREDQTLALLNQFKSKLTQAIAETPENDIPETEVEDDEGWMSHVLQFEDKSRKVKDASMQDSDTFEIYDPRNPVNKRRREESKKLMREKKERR
# Summary of the method: as §1
# [2] = molecular target: T4, UniProt Q6ZS86 and related entries
# T4 sequence (whole entry): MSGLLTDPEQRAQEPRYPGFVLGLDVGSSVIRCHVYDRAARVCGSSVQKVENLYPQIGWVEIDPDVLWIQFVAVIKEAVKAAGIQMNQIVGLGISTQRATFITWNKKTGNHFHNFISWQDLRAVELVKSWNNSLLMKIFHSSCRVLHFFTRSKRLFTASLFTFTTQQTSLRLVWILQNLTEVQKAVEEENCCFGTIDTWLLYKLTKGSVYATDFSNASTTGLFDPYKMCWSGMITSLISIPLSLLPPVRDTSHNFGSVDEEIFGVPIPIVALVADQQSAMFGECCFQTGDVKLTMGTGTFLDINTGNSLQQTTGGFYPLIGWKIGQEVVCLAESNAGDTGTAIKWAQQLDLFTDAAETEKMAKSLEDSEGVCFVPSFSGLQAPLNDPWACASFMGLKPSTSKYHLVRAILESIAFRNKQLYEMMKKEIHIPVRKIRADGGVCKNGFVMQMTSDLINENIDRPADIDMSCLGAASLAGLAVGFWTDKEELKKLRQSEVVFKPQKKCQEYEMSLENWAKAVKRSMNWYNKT
# Summary of the method: as §1
# [3] = molecular target: T5, UniProt Q76FK4 and related entries
# T5 sequence (whole entry): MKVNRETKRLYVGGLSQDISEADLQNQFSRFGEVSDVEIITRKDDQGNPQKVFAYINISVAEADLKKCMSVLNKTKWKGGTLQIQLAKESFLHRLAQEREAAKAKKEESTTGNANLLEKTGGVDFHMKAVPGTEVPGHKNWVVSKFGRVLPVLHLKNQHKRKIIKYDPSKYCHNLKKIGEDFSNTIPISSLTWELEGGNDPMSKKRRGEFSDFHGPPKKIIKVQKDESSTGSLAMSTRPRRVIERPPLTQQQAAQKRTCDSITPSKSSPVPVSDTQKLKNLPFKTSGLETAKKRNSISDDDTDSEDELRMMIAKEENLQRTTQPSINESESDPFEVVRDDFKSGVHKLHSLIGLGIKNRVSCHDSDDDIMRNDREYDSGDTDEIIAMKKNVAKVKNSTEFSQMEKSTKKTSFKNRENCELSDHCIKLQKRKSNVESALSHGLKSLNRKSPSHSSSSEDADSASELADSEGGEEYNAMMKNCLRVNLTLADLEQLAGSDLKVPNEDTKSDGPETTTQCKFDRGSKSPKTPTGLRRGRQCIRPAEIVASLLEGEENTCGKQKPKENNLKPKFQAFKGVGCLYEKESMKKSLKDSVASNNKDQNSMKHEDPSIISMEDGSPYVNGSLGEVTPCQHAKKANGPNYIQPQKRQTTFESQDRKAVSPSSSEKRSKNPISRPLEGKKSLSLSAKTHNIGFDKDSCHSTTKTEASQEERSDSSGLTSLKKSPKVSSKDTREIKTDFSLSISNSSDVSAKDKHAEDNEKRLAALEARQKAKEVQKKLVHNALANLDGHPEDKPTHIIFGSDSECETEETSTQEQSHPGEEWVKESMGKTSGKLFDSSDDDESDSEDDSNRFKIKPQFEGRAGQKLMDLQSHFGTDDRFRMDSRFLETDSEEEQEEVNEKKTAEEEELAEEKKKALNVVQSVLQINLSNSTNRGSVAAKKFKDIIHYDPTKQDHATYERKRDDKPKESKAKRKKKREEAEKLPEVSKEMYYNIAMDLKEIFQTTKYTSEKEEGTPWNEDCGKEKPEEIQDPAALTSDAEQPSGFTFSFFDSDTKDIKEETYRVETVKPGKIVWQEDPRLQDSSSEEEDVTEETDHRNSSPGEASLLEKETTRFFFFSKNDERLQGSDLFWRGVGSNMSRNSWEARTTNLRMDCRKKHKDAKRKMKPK
# Summary of the method: as §1
smiles,measurement,setting,value
Nc1ncnc2c1ncn2[C@@H]1O[C@H](COP(=O)(O)OP(=O)(O)OP(=O)(O)O)[C@@H](O)[C@H]1O [adenosine triphosphate],NP40-soluble protein abundance,[1]; concentration: 1mM,1.11 ± 0.047
same,NP40-soluble protein abundance,[1]; concentration: 2mM,1.13 ± 0.029
same,NP40-soluble protein abundance,[1]; concentration: 4mM,1.15 ± 0.051
same,NP40-soluble protein abundance,[1]; concentration: 6mM,1.14 ± 0.079
same,NP40-soluble protein abundance,[1]; concentration: 8mM,1.12 ± 0.034
same,NP40-soluble protein abundance,[1]; concentration: 10mM,1.15 ± 0.046
same,NP40-soluble protein abundance,UniProt Q6UW63; concentration: 1mM,0.986 ± 0.07
same,NP40-soluble protein abundance,UniProt Q6UW63; concentration: 2mM,0.965 ± 0.051
same,NP40-soluble protein abundance,UniProt Q6UW63; concentration: 4mM,0.96 ± 0.097
same,NP40-soluble protein abundance,UniProt Q6UW63; concentration: 6mM,0.967 ± 0.14
same,NP40-soluble protein abundance,UniProt Q6UW63; concentration: 8mM,0.945 ± 0.089
same,NP40-soluble protein abundance,UniProt Q6UW63; concentration: 10mM,0.963 ± 0.021
same,NP40-soluble protein abundance,UniProt Q6UX04; concentration: 1mM,1.05 ± 0.046
same,NP40-soluble protein abundance,UniProt Q6UX04; concentration: 2mM,1.05 ± 0.03
same,NP40-soluble protein abundance,UniProt Q6UX04; concentration: 4mM,1.02 ± 0.047
same,NP40-soluble protein abundance,UniProt Q6UX04; concentration: 6mM,1.1 ± 0.043
same,NP40-soluble protein abundance,UniProt Q6UX04; concentration: 8mM,1.04 ± 0.029
same,NP40-soluble protein abundance,UniProt Q6UX04; concentration: 10mM,1.046 ± 0.01
same,NP40-soluble protein abundance,[2]; concentration: 1mM,1.12 ± 0.15
same,NP40-soluble protein abundance,[2]; concentration: 2mM,1.11 ± 0.22
same,NP40-soluble protein abundance,[2]; concentration: 4mM,1.09 ± 0.16
same,NP40-soluble protein abundance,[2]; concentration: 6mM,0.992 ± 0.18
same,NP40-soluble protein abundance,[2]; concentration: 8mM,0.934 ± 0.11
same,NP40-soluble protein abundance,[2]; concentration: 10mM,1 ± 0.054
same,NP40-soluble protein abundance,[3]; concentration: 1mM,1.02 ± 0.04
same,NP40-soluble protein abundance,[3]; concentration: 2mM,1.09 ± 0.021
same,NP40-soluble protein abundance,[3]; concentration: 4mM,1.139 ± 0.011
same,NP40-soluble protein abundance,[3]; concentration: 6mM,1.24 ± 0.018
same,NP40-soluble protein abundance,[3]; concentration: 8mM,1.21 ± 0.015
same,NP40-soluble protein abundance,[3]; concentration: 10mM,1.28 ± 0.022

# Some of the entries so far, bar-delimited:
smiles | measurement | setting | value
Nc1ncnc2c1ncn2[C@@H]1O[C@H](COP(=O)(O)OP(=O)(O)OP(=O)(O)O)[C@@H](O)[C@H]1O [adenosine triphosphate] | NP40-soluble protein abundance | [1]; concentration: 6mM | 1.14 ± 0.079
same | NP40-soluble protein abundance | [1]; concentration: 8mM | 1.12 ± 0.034

# Source: the supplement of paper PMC6411743
